These are yes or no findings as the source states them, for the method shown. Binding seen in cells or lysates may run through a third protein. These calls come from enrichment with a bait or labelling near it, and not all partners need be listed.
Molecular target: FLAG-Pacs1 (bead-immobilized bait of the co-IP mass spectrometry) (mouse) (UniProt Q8K212)
Test: co-IP mass spectrometry: bead-immobilized FLAG-Pacs1 incubated with murine B cell cytosolic extract, LC-MS/MS

Protein sequences, listed by entry. Tags and fused reporters are not part of them. Residues count along the entry.
UniProt Q8K212, residues 114-961: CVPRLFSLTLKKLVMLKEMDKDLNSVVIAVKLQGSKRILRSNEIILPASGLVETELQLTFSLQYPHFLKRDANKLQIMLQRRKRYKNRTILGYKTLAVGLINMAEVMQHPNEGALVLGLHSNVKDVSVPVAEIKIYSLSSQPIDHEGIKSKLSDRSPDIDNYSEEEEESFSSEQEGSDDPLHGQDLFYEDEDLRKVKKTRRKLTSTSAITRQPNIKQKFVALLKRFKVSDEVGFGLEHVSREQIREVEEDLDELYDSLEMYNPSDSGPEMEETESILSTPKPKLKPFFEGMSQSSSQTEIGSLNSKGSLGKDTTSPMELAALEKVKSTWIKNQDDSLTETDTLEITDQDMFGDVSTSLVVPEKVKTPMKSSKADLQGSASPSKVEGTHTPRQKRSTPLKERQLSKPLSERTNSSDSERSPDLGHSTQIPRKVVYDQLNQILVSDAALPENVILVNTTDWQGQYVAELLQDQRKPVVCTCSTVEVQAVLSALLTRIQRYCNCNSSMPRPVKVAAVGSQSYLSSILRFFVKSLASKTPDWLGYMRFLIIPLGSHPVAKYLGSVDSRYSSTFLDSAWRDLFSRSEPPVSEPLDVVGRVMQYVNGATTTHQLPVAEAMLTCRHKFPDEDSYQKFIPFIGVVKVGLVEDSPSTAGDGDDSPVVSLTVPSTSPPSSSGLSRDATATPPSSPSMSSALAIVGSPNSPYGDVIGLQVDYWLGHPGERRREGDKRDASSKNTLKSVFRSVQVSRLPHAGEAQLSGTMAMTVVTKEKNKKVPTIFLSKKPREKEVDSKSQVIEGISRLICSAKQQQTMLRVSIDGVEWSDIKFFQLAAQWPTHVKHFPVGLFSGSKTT

- binding: binds
B1: WD repeat domain protein 37 (Wdr37), endogenous, from cytosolic extract of wild-type murine B cells (protein, mouse, UniProt Q8CBE3 1-496, looked up)
chain: MPTESGSCSTARQAKQKRKSHSLSIRRTNSSEQERTGLPREMLEGQDSKLPSSVRSTLLELFGQIEREFENLYIENLELRREIDTLNERLAGEGQAIDGAELSKGQLKTKASHSTSQLSQKLKTTYKASTSKIVSSFKTTTSRAICQLVKEYIGHRDGIWDVSVTRTQPIVLGTASADHTALLWSIETGKCLVKYAGHVGSVNSIKFHPSEQLALTASGDQTAHIWRYVVQLPTPQPVADTSQQISGEDEIECSDKDEPDIDGDVSSDCPTVRVPLTSLKSHQGVVIAADWLVGGKQVVTASWDRTANLYDVETSELVHSLTGHDQELTHCCTHPTQRLVVTSSRDTTFRLWDFRDPSIHSVNVFQGHTDTVTSAVFTVGDNVVSGSDDRTVKVWDLKNMRSPIATIRTDSAINRINVCVGQKIIALPHDNRQVRLFDMSGVRLARLPRSSRQGHRRMVCCSAWSEDHPICNLFTCGFDRQAIGWNINIPALLQEK

From patent US20240043838A1
